Construct, isoform or probe ends are uncertain for at least one entry. The comparison behind a weaker result is the experiment's own reference, which may not be listed here.

This series deals with p53 core domain (UniProt P04637). Kind of series: binding assay. The settings on record: CITED, unit not given, purified recombinant protein.

Turning to “CGCGCCTGCAAGTCCTGACTTGTCCGCGGC (double strand) [PUMA-BS2 RE (qPCR-tagged fragment)]”, the binding result was “binds”.
Take “CTTGGGAACAAGGGCATGAGCTTGTCTGGGCT (double strand) [P2XM RE (qPCR-tagged fragment)]”: the binding result (construct not explicitly stated) is “binds more weakly”.
For the sequence “TAGAGGAAGAAGACTGGGCATGTCTGGGCA (double strand) [p21 3' site RE (qPCR-tagged fragment)]”, the binding result is reported as “binds”.

Values taken from patent US20150359843.
